# Results as given in the supplement of paper PMC8728848.
# The list shows a part of the results.
# B1: PEB4 (Campylobacter jejuni), A1VYV6 (protein)
# chain: MKKFSLVAAALIAGVALNVNAATVATVNGKSISDAEVSEFFAPMLRGQDFKTLPDNQKKALIQQYIMQDLILQDAKKQNLEKDPLYTKELDRAKDAILVNVYQEKILNTIKIDAAKVKAFYDQNKDKYVKPARVQAKHILVATEKEAKDIINELKGLKGKELDAKFSELAKEKSIDPGSKNQGGELGWFDQSTMVKPFTDAAFALKNGTITTTPVKTNFGYHVILKENSQAKGQIKFDEVKQGIENGLKFEEFKKVINQKGQDLLNSAKVEYK
# Experiments:
# Assay in all cases: glycan array binding signal (z-score within array); higher = stronger binding
# Settings in all cases: glycan notation: IUPAC condensed, linker removed
# [1] = biological target: Fuc(a1-3)[Gal3S(b1-4)]GlcNAc
# Procedure, shortened: (§1)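 The binding signal is a Z-score computed within each array. Data were drawn from 3228 arrays in the Consortium for Functional Glycomics database, restricted to those with a known protein sequence. Scores were averaged over arrays of the same protein sequence at different concentrations or buffers, and over linkers, and negative values can be taken as non-binding.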
# [2] = biological target: Fuc(a1-3)[Gal3S(b1-4)]GlcNAc6S
# Procedure, shortened: as §1
# [3] = biological target: Fuc(a1-3)[GalNAc(b1-4)]GlcNAc
# Procedure, shortened: as §1
# [4] = biological target: Fuc(a1-4)GlcNAc
# Procedure, shortened: as §1
# [5] = biological target: Fuc(b1-3)GlcNAc
# Procedure, shortened: as §1
# [6] = biological target: Gal(a1-2)Gal
# Procedure, shortened: as §1
# [7] = biological target: Gal(a1-3)Gal
# Procedure, shortened: as §1
# [8] = biological target: Gal(a1-3)Gal(b1-3)GlcNAc
# Procedure, shortened: as §1
# [9] = biological target: Gal(a1-3)Gal(b1-3)GlcNAc(b1-2)Man(a1-3)[Gal(a1-3)Gal(b1-3)GlcNAc(b1-2)Man(a1-6)]Man(b1-4)GlcNAc(b1-4)GlcNAc
# Procedure, shortened: as §1
# [10] = biological target: Gal(a1-3)Gal(b1-3)[Fuc(a1-4)]GlcNAc(b1-2)Man(a1-3)[Gal(a1-3)Gal(b1-3)[Fuc(a1-4)]GlcNAc(b1-2)Man(a1-6)]Man(b1-4)GlcNAc(b1-4)GlcNAc
# Procedure, shortened: as §1
# [11] = biological target: Gal(a1-3)Gal(b1-4)Glc
# Procedure, shortened: as §1
# [12] = biological target: Gal(a1-3)Gal(b1-4)GlcNAc
# Procedure, shortened: as §1
# [13] = biological target: Gal(a1-3)Gal(b1-4)GlcNAc(b1-3)GalNAc
# Procedure, shortened: as §1
# [14] = biological target: Gal(a1-3)Gal(b1-4)[Fuc(a1-3)]GlcNAc
# Procedure, shortened: as §1
# [15] = biological target: Gal(a1-3)Gal(b1-4)[Fuc(a1-3)]GlcNAc(b1-2)Man(a1-3)[Gal(a1-3)Gal(b1-4)[Fuc(a1-3)]GlcNAc(b1-2)Man(a1-6)]Man(b1-4)GlcNAc(b1-4)GlcNAc
# Procedure, shortened: as §1
# [16] = biological target: Gal(a1-3)GalNAc
# Procedure, shortened: as §1
# [17] = biological target: Gal(a1-3)[Gal(a1-4)]Gal(b1-4)GlcNAc
# Procedure, shortened: as §1
# [18] = biological target: Gal(a1-4)Gal(b1-3)GlcNAc(b1-2)Man(a1-3)[Gal(a1-4)Gal(b1-3)GlcNAc(b1-2)Man(a1-6)]Man(b1-4)GlcNAc(b1-4)GlcNAc
# Procedure, shortened: as §1
# [19] = biological target: Gal(a1-4)Gal(b1-4)Glc
# Procedure, shortened: as §1
# [20] = biological target: Gal(a1-4)Gal(b1-4)GlcNAc
# Procedure, shortened: as §1
# [21] = biological target: Gal(a1-4)Gal(b1-4)GlcNAc(b1-2)Man(a1-3)[Gal(a1-4)Gal(b1-4)GlcNAc(b1-2)Man(a1-6)]Man(b1-4)GlcNAc(b1-4)GlcNAc
# Procedure, shortened: as §1
# [22] = biological target: Gal(a1-4)Gal(b1-4)GlcNAc(b1-3)Gal(b1-4)Glc
# Procedure, shortened: as §1
# [23] = biological target: Gal(a1-4)GlcNAc
# Procedure, shortened: as §1
# [24] = biological target: Gal(a1-6)Glc
# Procedure, shortened: as §1
# [25] = biological target: Gal(b1-2)Gal
# Procedure, shortened: as §1
# [26] = biological target: Gal(b1-3)Gal
# Procedure, shortened: as §1
# [27] = biological target: Gal(b1-3)Gal(b1-4)GlcNAc
# Procedure, shortened: as §1
# [28] = biological target: Gal(b1-3)Gal(b1-4)GlcNAc(b1-2)Man(a1-3)[Gal(b1-3)Gal(b1-4)GlcNAc(b1-2)Man(a1-6)]Man(b1-4)GlcNAc(b1-4)GlcNAc
# Procedure, shortened: as §1
# [29] = biological target: Gal(b1-3)GalNAc
# Procedure, shortened: as §1
# [30] = biological target: Gal(b1-3)GalNAc(a1-3)[Fuc(a1-2)]Gal(b1-4)Glc
# Procedure, shortened: as §1
# [31] = biological target: Gal(b1-3)GalNAc(a1-3)[Fuc(a1-2)]Gal(b1-4)GlcNAc
# Procedure, shortened: as §1
# [32] = biological target: Gal(b1-3)GalNAc(b1-3)Gal(a1-4)Gal(b1-4)Glc
# Procedure, shortened: as §1
# [33] = biological target: Gal(b1-3)GalNAc(b1-4)Gal(b1-4)Glc
# Procedure, shortened: as §1
# [34] = biological target: Gal(b1-3)GalNAc(b1-4)[Neu5Ac(a2-3)]Gal(b1-4)Glc
# Procedure, shortened: as §1
# [35] = biological target: Gal(b1-3)GlcNAc
# Procedure, shortened: as §1
# [36] = biological target: Gal(b1-3)GlcNAc(a1-6)Gal(b1-4)GlcNAc
# Procedure, shortened: as §1
# [37] = biological target: Gal(b1-3)GlcNAc(b1-2)Man(a1-3)[Gal(b1-3)GlcNAc(b1-2)Man(a1-6)]Man(b1-4)GlcNAc(b1-4)GlcNAc
# Procedure, shortened: as §1
# [38] = biological target: Gal(b1-3)GlcNAc(b1-2)Man(a1-3)[Gal(b1-3)GlcNAc(b1-2)Man(a1-6)]Man(b1-4)GlcNAc(b1-4)[Fuc(a1-6)]GlcNAc
# Procedure, shortened: as §1
# [39] = biological target: Gal(b1-3)GlcNAc(b1-3)Gal(b1-3)GlcNAc
# Procedure, shortened: as §1
# [40] = biological target: Gal(b1-3)GlcNAc(b1-3)Gal(b1-4)Glc
# Procedure, shortened: as §1
# [41] = biological target: Gal(b1-3)GlcNAc(b1-3)Gal(b1-4)GlcNAc
# Procedure, shortened: as §1
# [42] = biological target: Gal(b1-3)GlcNAc(b1-3)Gal(b1-4)GlcNAc(b1-6)[Gal(b1-3)GlcNAc(b1-3)]Gal(b1-4)Glc
# Procedure, shortened: as §1
# [43] = biological target: Gal(b1-3)GlcNAc(b1-3)Gal(b1-4)[Fuc(a1-3)]GlcNAc(b1-6)[Gal(b1-3)GlcNAc(b1-3)]Gal(b1-4)Glc
# Procedure, shortened: as §1
# [44] = biological target: Gal(b1-3)GlcNAc(b1-3)GalNAc
# Procedure, shortened: as §1
# [45] = biological target: Gal(b1-3)GlcNAc(b1-6)Gal(b1-4)GlcNAc
# Procedure, shortened: as §1
# [46] = biological target: Gal(b1-3)[Fuc(a1-4)]GlcNAc
# Procedure, shortened: as §1
# [47] = biological target: Gal(b1-3)[Fuc(a1-4)]GlcNAc(b1-2)Man(a1-3)[Gal(b1-3)[Fuc(a1-4)]GlcNAc(b1-2)Man(a1-6)]Man(b1-4)GlcNAc(b1-4)GlcNAc
# Procedure, shortened: as §1
# [48] = biological target: Gal(b1-3)[Fuc(a1-4)]GlcNAc(b1-2)Man(a1-3)[Gal(b1-3)[Fuc(a1-4)]GlcNAc(b1-2)Man(a1-6)]Man(b1-4)GlcNAc(b1-4)[Fuc(a1-6)]GlcNAc
# Procedure, shortened: as §1
# [49] = biological target: Gal(b1-3)[Fuc(a1-4)]GlcNAc(b1-3)Gal(b1-3)[Fuc(a1-4)]GlcNAc
# Procedure, shortened: as §1
# [50] = biological target: Gal(b1-3)[Fuc(a1-4)]GlcNAc(b1-3)Gal(b1-4)GlcNAc
# Procedure, shortened: as §1
# [51] = biological target: Gal(b1-3)[Fuc(a1-4)]GlcNAc(b1-3)Gal(b1-4)[Fuc(a1-3)]GlcNAc
# Procedure, shortened: as §1
# [52] = biological target: Gal(b1-3)[GlcNAc(b1-6)]GalNAc
# Procedure, shortened: as §1
# [53] = biological target: Gal(b1-3)[Neu5Ac(a2-6)]GalNAc
# Procedure, shortened: as §1
# [54] = biological target: Gal(b1-3)[Neu5Ac(a2-6)]GlcNAc(b1-6)Gal(b1-4)Glc
# Procedure, shortened: as §1
# [55] = biological target: Gal(b1-3)[Neu5Ac(b2-6)]GalNAc
# Procedure, shortened: as §1
# [56] = biological target: Gal(b1-4)GalNAc(a1-3)[Fuc(a1-2)]Gal(b1-4)GlcNAc
# Procedure, shortened: as §1
# [57] = biological target: Gal(b1-4)GalNAc(b1-3)[Fuc(a1-2)]Gal(b1-4)GlcNAc
# Procedure, shortened: as §1
# [58] = biological target: Gal(b1-4)Glc
# Procedure, shortened: as §1
# [59] = biological target: Gal(b1-4)Glc6S
# Procedure, shortened: as §1
# [60] = biological target: Gal(b1-4)GlcNAc
# Procedure, shortened: as §1
binder,measurement,setting,value
B1,glycan array binding signal (z-score),[1],-0.585
same,glycan array binding signal (z-score),[2],0.881
same,glycan array binding signal (z-score),[3],1.58
same,glycan array binding signal (z-score),[4],-0.137
same,glycan array binding signal (z-score),[5],0.456
same,glycan array binding signal (z-score),[6],-0.516
same,glycan array binding signal (z-score),[7],-0.34
same,glycan array binding signal (z-score),[8],1.99
same,glycan array binding signal (z-score),[9],-0.247
same,glycan array binding signal (z-score),[10],3.83
same,glycan array binding signal (z-score),[11],1.18
same,glycan array binding signal (z-score),[12],-1.29
same,glycan array binding signal (z-score),[13],0.458
same,glycan array binding signal (z-score),[14],0.342
same,glycan array binding signal (z-score),[15],2.12
same,glycan array binding signal (z-score),[16],0.083
same,glycan array binding signal (z-score),[17],-0.261
same,glycan array binding signal (z-score),[18],0.844
same,glycan array binding signal (z-score),[19],-0.588
same,glycan array binding signal (z-score),[20],-0.782
same,glycan array binding signal (z-score),[21],0.194
same,glycan array binding signal (z-score),[22],-0.124
same,glycan array binding signal (z-score),[23],-1.09
same,glycan array binding signal (z-score),[24],-0.593
same,glycan array binding signal (z-score),[25],-0.391
same,glycan array binding signal (z-score),[26],-1.15
same,glycan array binding signal (z-score),[27],-0.951
same,glycan array binding signal (z-score),[28],-0.346
same,glycan array binding signal (z-score),[29],-0.212
same,glycan array binding signal (z-score),[30],0.326
same,glycan array binding signal (z-score),[31],0.271
same,glycan array binding signal (z-score),[32],0.113
same,glycan array binding signal (z-score),[33],-0.214
same,glycan array binding signal (z-score),[34],-0.512
same,glycan array binding signal (z-score),[35],-0.269
same,glycan array binding signal (z-score),[36],2.54
same,glycan array binding signal (z-score),[37],-0.056
same,glycan array binding signal (z-score),[38],0.11
same,glycan array binding signal (z-score),[39],-0.625
same,glycan array binding signal (z-score),[40],-0.744
same,glycan array binding signal (z-score),[41],0.262
same,glycan array binding signal (z-score),[42],-0.406
same,glycan array binding signal (z-score),[43],0.4
same,glycan array binding signal (z-score),[44],0.062
same,glycan array binding signal (z-score),[45],-1.16
same,glycan array binding signal (z-score),[46],-0.557
same,glycan array binding signal (z-score),[47],1.2
same,glycan array binding signal (z-score),[48],0.14
same,glycan array binding signal (z-score),[49],2.99
same,glycan array binding signal (z-score),[50],-0.586
same,glycan array binding signal (z-score),[51],0.387
same,glycan array binding signal (z-score),[52],-0.623
same,glycan array binding signal (z-score),[53],-1.29
same,glycan array binding signal (z-score),[54],0.34
same,glycan array binding signal (z-score),[55],-0.878
same,glycan array binding signal (z-score),[56],2.05
same,glycan array binding signal (z-score),[57],-0.25
same,glycan array binding signal (z-score),[58],-0.356
same,glycan array binding signal (z-score),[59],-0.287
same,glycan array binding signal (z-score),[60],-0.852

# Exported tab-delimited: entries from further up.
binder	measurement	setting	value
B1	glycan array binding signal (z-score)	[25]	-0.391
same	glycan array binding signal (z-score)	[26]	-1.15
same	glycan array binding signal (z-score)	[27]	-0.951
same	glycan array binding signal (z-score)	[28]	-0.346
same	glycan array binding signal (z-score)	[29]	-0.212
same	glycan array binding signal (z-score)	[30]	0.326
same	glycan array binding signal (z-score)	[31]	0.271
same	glycan array binding signal (z-score)	[32]	0.113
same	glycan array binding signal (z-score)	[33]	-0.214
same	glycan array binding signal (z-score)	[34]	-0.512
same	glycan array binding signal (z-score)	[35]	-0.269
same	glycan array binding signal (z-score)	[36]	2.54
same	glycan array binding signal (z-score)	[37]	-0.056
same	glycan array binding signal (z-score)	[38]	0.11
same	glycan array binding signal (z-score)	[39]	-0.625
same	glycan array binding signal (z-score)	[40]	-0.744
same	glycan array binding signal (z-score)	[41]	0.262
same	glycan array binding signal (z-score)	[42]	-0.406
